# Library screen at single concentrations

Data taken from ChEMBL document CHEMBL3988442, “University of Dundee, Small-Polar-MMV Screening Library” (2021).

A: 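Growth of Mycobacterium tuberculosis over 4 days (cholesterol / DPPC medium with tyloxapol); the read-out is not stated. Concentration: 50 µM. The record gives no direction; compounds that gave an IC50 in retests scored well above the rest, so higher reads as more growth inhibition. Of about 69,000 compounds tested this way, about 370 (0.54%) reached 50% or more in at least one test.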
B: 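Whole-cell growth test on Mycobacterium tuberculosis, read after 3 days in glucose-containing 7H9 medium; the read-out is not stated. Concentration: 50 µM. Direction is inferred from retests: higher values go with more growth inhibition. Size under these conditions: about 69,000 compounds, about 760 of them at 50% or above in at least one test.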

The filed quantity is “Percent Effect” (%). The controls that fix the scale are not given in the record; negative values are as filed. The compounds are a random part of those screened. Two or more numbers in one place are separate tests of the same structure; such repeats can differ widely.

| # | Compound | A | B |
|---|---|---|---|
| 1 | `c1ccc(-n2nnnc2CNCC2CCCN2c2cccnn2)cc1` (centres unmarked) | 11.53 | 42.77 |
| 2 | `[H][C@@]12CCN(S(=O)(=O)c3ccccc3C)C[C@]1(C(=O)NC)CCO2` | -0.451 and -6.231 | -4.022 |
| 3 | `CC(C)c1nccn1C1CCCN(C(=O)CCc2cnn(C)c2)C1` (centres unmarked) | -12.44 | 0.8236 |
| 4 | `CN(C)S(=O)(=O)N1CCCC(c2cccc(Cc3ccc(Cl)cc3)n2)C1` (centres unmarked) | -12.5 | 9.211 |
| 5 | `CCC(O)Cn1nc(-c2ccc(C(=O)O)cc2)cc1-c1cccc(F)c1` (centres unmarked) | 7.492 and 2.004 | -16.29 |
| 6 | `CC(C)(C)SCC(=O)NCCc1csc(N2CCCC2)n1` | -10.95 and -9.659 | 7.485 |
| 7 | `CC(C)Cc1cc(C(=O)NCC(O)c2ccc(F)cc2)n(C)n1` (centres unmarked) | 5.207 | 16.72 |
| 8 | `CC(C)(C)c1nc(CN(Cc2ccccc2F)C2CCCCC2)no1` | 13.22 | 32.05 |
| 9 | `Cc1nccc(C2CCCN(S(=O)(=O)N3CCOCC3)C2)n1` (centres unmarked) | -7.992 and -19.19 | -35.44 |
| 10 | `CCc1nnc(CN2CCCC(c3cc(C(F)(F)F)[nH]n3)C2)o1` (centres unmarked) | -15.82 | -4.77 |
| 11 | `Cc1noc(C)c1CN1C[C@@H](C(=O)O)[C@H](c2ccccn2)C1` | 18.71 | 23.18 |
| 12 | `COc1ccc(CCC2CCCCN2)cc1OC` (centres unmarked) | -10.53 | -33.3 |
| 13 | `Clc1ccc2c(c1)C=C(CNC1CCc3ncnn3C1)CO2` (centres unmarked) | 18.92 | 20.9 |
| 14 | `CN(C)c1cc2c(nn1)CCN(C(=O)c1cc3c(s1)CCC3)C2` | -28.93 | 23.18 |
| 15 | `N#Cc1ccc(OCC(O)CN2CCc3cncnc3C2)cc1` (centres unmarked) | -12.65 | 16.84 |
| 16 | `CCn1cc(C#N)c(=O)c2cc(Br)ccc21` | -3.22 | -6.464 |
| 17 | `COc1ccc(C2CC(=O)Nc3c2cnn3C2CCCC2)cc1` (centres unmarked) | 2.352 | 32.08 |
| 18 | `O=C(NS(=O)(=O)c1ccc(F)c(F)c1)c1cscn1` | -22.07 | -14.94 and -8.065 |
| 19 | `Cn1cccc(NC(=O)NCCOCc2ccccc2)c1=O` | -5.452 | 3.894 and -12.77 |
| 20 | `Cc1cc(C(=O)NC2CCN(c3ncccc3C#N)CC2)no1` | -9.407 | -6.879 and 5.068 |
| 21 | `CCCc1cc(C(=O)N2C[C@@H](C)[C@](O)(C3CCC3)C2)[nH]n1` | -21.92 | -35.4 |
| 22 | `O=C1CCCN1CCC1CCN(C2CCCNC2)CC1` (centres unmarked) | -5.277 and -10.74 | 16.45 |
| 23 | `Cc1noc(C2CCCN2C(=O)C2CCC2)n1` (centres unmarked) | -21.12 | -13.99 |
| 24 | `CN(Cc1cccc(C#N)c1)c1ncc(C(N)=O)cc1Cl` | 3.469 | 2.327 |
| 25 | `CS(=O)(=O)N1CCC(Nc2ccnc3ccc(Cl)cc23)CC1` | 32.39 | 16.55 |
| 26 | `Cc1ccc(C(=O)Nc2ccc(N3CCCC3)cn2)cc1C` | -9.707 | -10.53 and -1.48 |
| 27 | `CCN(CC(=O)N(C)C)C(=O)c1nc(C)n(-c2ccccc2Cl)n1` | 4.205 | 23.77 |
| 28 | `CC(C)Cn1[nH]cc/c1=N\C(=O)CN1CCOC(Cn2cccn2)C1` (centres unmarked) | -3.935 | -54.95 |
| 29 | `Cc1nn(-c2ccccc2)c(C)c1CNC1CCc2ncnn2C1` (centres unmarked) | 13.95 | -11.53 |
| 30 | `Cn1ncc2c(N3CCN4CCCCC4C3)nc(C3CCCC3)nc21` (centres unmarked) | 21.41 | 25.61 |
| 31 | `CC(=O)N1CCCC2(CCN(C(=O)c3ccc(Cl)c(C(F)(F)F)c3)C2)C1` (centres unmarked) | -0.1509 | 6.372 |
| 32 | `O=c1oc(-c2ccc(F)cc2)nn1CN1CCN(C2CCCC2)CC1` | -12.88 | -13.66 |
| 33 | `Cc1cc(CNC(=O)Cc2cccs2)ccc1S(C)(=O)=O` | -10.31 and 3.739 | -16.49 |
| 34 | `CC(=O)c1c(C)nn(S(=O)(=O)c2ccc(F)cc2)c1C` | 19.55 | 32.07 |
| 35 | `CCn1nc(C)c2nc(C(C)C)nc(NCCc3ccc(O)cc3)c21` | 17.57 | 50.15 |
| 36 | `COc1ccc(OC)c(CCNc2ncc(S(N)(=O)=O)s2)c1` | 0.4547 | 22.63 |
| 37 | `O=C(O)C(F)(F)F.[H][C@@]12C[C@@H](C(=O)N3CCC(C)CC3)CN(Cc3ccoc3)[C@]1([H])CCO2` | 4.983 | 11.38 |
| 38 | `Cc1ncc(C(=O)N2CCCC(C(=O)CCc3ccccc3)C2)s1` (centres unmarked) | -1.544 | -17.74 |
| 39 | `CN1CCC[C@H]1c1nc(-c2cncnc2N)no1` | -23.81 | -21.12 and 2.215 |
| 40 | `CC(=O)c1ccc(S(=O)(=O)N2CCCC2CN2CCCC2)cc1` (centres unmarked) | -4.86 | -21.88 |
| 41 | `[H][C@@]12CCN(Cc3cnn(C)c3)C[C@@]1([H])[C@H](C(=O)N1CCCCO1)CCO2` | 15.93 | 27.52 |
| 42 | `COc1ccccc1CC1CCCN(C(=O)c2nccnc2N)C1` (centres unmarked) | 4.161 | 4.874 |
| 43 | `COc1ccccc1CC(C)CC(=O)NS(=O)(=O)C(C)C` (centres unmarked) | -20.29 | -6.512 and -13.09 |
| 44 | `CC(C)C(=O)N1CCN(C(=O)CCc2nnc(-c3ccccc3)o2)CC1` | 1.184 | -11.56 |
| 45 | `Cc1ccc(CC(=O)N2CCCn3nnc(Cn4cccn4)c3C2)cc1` | -20.7 | -29.88 |
| 46 | `CCc1cc(NCc2cc3n(n2)CCCN(S(C)(=O)=O)C3)nc(C)n1` | -11.95 | -12.56 |
| 47 | `CNC(=O)c1cn[nH]c1C1CCN(Cc2sccc2C)C1` (centres unmarked) | -5.222 | -8.686 |
| 48 | `COc1ccc(C(C(=O)O)N2CCC(Cn3cccn3)CC2)cc1F` (centres unmarked) | -26.87 | -43.62 |